Publication PMC7910438, “The TUTase URT1 connects decapping activators and prevents the accumulation of excessively deadenylated mRNAs to avoid siRNA biogenesis” (Nature Communications, 2021)
No constants are given. Whether binding was seen depends on the method and setting. Binding seen in cells or lysates may run through a third protein. A yes stands for co-enrichment or nearness to the bait. Other partners may have been found. For part of these data: A no says only that the protein was not detected with the bait. Where a sequence is shown, tags or fusion partners need not be part of it.

Chains of the proteins cited; added tags and fusions are not shown. Lines headed by an entry give the natural chain unless they say otherwise; changes in a name come on top.
UniProt Q76E23: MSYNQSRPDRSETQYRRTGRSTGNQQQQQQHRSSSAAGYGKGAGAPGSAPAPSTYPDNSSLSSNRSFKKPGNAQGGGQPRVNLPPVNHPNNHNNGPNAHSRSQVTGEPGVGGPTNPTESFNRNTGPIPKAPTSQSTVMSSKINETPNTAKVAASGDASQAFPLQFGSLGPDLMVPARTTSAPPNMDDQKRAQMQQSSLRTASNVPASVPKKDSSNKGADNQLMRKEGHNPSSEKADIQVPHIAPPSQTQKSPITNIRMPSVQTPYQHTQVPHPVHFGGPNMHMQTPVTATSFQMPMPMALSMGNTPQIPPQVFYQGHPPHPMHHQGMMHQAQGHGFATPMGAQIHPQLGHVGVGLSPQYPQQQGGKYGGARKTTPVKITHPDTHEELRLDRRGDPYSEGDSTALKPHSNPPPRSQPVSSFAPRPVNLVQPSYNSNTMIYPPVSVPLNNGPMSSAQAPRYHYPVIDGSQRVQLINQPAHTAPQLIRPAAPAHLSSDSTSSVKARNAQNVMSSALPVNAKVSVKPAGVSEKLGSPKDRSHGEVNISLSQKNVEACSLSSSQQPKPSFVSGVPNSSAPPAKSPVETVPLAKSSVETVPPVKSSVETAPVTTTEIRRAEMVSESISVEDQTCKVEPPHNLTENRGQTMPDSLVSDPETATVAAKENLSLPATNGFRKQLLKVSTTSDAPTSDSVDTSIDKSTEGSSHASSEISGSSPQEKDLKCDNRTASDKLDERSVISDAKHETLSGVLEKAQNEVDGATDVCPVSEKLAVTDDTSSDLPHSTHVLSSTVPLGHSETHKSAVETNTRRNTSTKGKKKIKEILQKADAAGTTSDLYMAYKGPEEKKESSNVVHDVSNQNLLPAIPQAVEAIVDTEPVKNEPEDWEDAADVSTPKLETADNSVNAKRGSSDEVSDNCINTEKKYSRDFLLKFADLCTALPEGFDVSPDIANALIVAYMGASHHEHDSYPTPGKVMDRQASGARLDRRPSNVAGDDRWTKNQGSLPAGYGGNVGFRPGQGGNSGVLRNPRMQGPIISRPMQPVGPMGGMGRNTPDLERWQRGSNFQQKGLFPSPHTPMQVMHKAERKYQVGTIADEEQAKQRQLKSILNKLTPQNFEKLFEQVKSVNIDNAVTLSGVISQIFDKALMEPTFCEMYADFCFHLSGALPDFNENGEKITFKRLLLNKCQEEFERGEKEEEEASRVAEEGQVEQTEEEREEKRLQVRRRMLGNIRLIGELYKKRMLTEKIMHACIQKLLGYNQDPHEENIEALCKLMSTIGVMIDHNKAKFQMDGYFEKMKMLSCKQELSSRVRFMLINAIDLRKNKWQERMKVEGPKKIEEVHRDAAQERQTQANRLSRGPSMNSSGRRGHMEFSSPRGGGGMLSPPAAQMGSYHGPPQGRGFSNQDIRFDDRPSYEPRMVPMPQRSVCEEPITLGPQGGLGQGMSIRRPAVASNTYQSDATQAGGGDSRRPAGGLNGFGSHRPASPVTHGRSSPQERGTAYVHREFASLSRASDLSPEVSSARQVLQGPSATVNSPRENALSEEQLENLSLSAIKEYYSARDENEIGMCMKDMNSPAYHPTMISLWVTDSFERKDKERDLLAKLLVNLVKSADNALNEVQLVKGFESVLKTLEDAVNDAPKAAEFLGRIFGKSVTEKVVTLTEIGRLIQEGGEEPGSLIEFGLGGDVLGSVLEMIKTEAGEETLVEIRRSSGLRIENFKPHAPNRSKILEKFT
UniProt F4JZU5: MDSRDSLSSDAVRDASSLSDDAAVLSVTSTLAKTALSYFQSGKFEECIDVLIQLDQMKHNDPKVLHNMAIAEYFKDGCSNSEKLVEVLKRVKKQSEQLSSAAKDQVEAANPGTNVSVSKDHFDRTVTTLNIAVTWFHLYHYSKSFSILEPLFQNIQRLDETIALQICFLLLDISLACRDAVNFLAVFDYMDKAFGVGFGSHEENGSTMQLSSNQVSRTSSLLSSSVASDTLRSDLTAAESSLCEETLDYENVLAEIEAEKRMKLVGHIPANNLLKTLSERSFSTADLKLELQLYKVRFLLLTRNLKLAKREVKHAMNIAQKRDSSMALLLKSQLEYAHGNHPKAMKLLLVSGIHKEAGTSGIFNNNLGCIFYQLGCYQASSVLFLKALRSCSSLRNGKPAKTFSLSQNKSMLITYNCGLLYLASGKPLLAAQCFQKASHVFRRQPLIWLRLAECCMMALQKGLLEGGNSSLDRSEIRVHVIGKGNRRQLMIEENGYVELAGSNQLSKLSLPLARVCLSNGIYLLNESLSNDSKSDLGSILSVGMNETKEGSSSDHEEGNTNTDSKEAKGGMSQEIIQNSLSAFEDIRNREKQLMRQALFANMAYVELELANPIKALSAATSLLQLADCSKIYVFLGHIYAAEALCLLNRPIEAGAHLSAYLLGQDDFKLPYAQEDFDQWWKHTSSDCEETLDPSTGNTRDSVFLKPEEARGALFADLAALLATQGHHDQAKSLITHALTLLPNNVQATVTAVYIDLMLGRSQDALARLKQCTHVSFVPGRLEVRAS

Experiments:
[1] = target: T1, URT1 (UTP:RNA U… 1) tagged with myc or YFP (Arabidopsis thaliana) (UniProt O64642); assay: affinity purification with mass spectrometry; without crosslinking; Arabidopsis flower buds or seedlings in 50 mM Tris-HCl pH 8, 50 mM NaCl, 1% Triton X-100; anti-c-myc or anti-GFP magnetic microbeads; nanoLC-MS/MS against Col-0 control IPs (Fig. 2b)
T1 sequence: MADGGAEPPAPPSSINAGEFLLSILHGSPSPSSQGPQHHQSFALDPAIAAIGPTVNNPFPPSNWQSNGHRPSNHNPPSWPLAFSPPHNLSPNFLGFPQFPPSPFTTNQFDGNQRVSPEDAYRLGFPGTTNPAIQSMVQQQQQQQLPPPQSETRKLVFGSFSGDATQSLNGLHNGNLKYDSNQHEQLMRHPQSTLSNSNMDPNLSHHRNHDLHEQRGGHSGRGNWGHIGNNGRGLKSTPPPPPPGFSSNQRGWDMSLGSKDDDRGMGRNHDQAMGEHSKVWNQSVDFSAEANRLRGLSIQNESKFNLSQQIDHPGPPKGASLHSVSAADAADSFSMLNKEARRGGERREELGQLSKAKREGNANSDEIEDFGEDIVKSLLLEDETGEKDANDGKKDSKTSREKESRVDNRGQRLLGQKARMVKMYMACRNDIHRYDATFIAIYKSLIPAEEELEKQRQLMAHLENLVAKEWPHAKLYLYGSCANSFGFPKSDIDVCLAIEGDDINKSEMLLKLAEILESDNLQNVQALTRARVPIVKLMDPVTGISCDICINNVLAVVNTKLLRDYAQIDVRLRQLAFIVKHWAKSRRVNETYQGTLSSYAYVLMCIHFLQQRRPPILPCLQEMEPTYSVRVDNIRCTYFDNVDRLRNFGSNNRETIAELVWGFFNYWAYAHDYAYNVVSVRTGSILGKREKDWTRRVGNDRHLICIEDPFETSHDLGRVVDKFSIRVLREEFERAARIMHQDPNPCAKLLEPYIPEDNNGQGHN

[2] = target: T1, URT1 (UTP:RNA U… 1) tagged with myc or YFP (Arabidopsis thaliana); assay: affinity purification with mass spectrometry; Arabidopsis flower bud extracts cross-linked with 0.375% formaldehyde; tagged URT1 captured on anti-c-myc or anti-GFP magnetic microbeads; washes 50 mM Tris-HCl pH 7.5, 50 mM NaCl, 0.1% Triton X-100; nanoLC-MS/MS, spectral counts against control IPs (Fig. 2a) or m1URT1-myc against URT1-myc (Fig. 2f)
[3] = target: T1, URT1 (UTP:RNA U… 1) tagged with myc or YFP (Arabidopsis thaliana); assay: as above; remark: listed apart in the source
[4] = target: T2, URT1-myc (Arabidopsis thaliana) (UniProt O64642); assay: as above
T2 sequence: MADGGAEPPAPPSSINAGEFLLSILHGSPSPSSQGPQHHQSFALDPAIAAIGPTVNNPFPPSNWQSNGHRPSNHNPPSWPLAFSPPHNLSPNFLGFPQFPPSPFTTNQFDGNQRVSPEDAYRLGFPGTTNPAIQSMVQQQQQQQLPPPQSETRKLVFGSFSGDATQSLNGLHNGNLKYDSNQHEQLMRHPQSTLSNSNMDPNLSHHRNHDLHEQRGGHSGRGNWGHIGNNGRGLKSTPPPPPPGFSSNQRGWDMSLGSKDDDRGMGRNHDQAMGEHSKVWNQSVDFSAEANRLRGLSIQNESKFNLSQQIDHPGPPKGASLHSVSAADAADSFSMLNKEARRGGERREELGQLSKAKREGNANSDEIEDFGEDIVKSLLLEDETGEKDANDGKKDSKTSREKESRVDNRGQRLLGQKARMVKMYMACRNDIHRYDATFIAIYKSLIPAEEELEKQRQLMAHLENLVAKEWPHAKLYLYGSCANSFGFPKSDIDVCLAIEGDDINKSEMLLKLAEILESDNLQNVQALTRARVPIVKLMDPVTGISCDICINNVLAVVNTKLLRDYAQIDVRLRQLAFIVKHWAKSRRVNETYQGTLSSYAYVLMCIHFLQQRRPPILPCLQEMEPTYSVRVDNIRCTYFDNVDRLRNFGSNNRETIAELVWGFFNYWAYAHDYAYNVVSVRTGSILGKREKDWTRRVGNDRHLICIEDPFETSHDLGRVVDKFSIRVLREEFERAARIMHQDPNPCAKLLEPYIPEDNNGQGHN

Q: Which binding [1] does the source give for “translation initiation factor eIF4G (from UniProt Q76E23 1-1727)” here?
A: Its binding is “binds”.

Q: Which binding [2] does the source give for EXA1 homolog AT1G27430 (GYF protein) here?
A: The binding was “binds”.

Q: For EXA1 homolog AT1G24300 (GYF protein), which binding [2] is on record?
A: The binding was “binds”.

Q: Which binding [2] does the source give for “… FOR POTEXVIRUS ACCUMULATION 1 (EXA1) (from UniProt Q9FMM3 1-1714)” here?
A: Its binding is “binds”.

Q: Which binding [2] does the source give for CNOT10 (from UniProt F4JZU5) here?
A: The binding was “binds”.

Q: For DCP1, which binding [2] is on record?
A: Its binding is “no binding”.

Q: With CNOT11 as the molecule, how does the binding [2] read?
A: The binding was “binds”.

Q: Which binding [2] does the source give for CNOT1 here?
A: Its binding is “binds”.

B1: new cap-binding protein (nCBP) (protein, UniProt Q9FK59 1-221)
chain: MEVLDRRDDEIRDSGNMDSIKSHYVTDSVSEERRSRELKDGDHPLRYKFSIWYTRRTPGVRNQSYEDNIKKMVEFSTVEGFWACYCHLARSSLLPSPTDLHFFKDGIRPLWEDGANCNGGKWIIRFSKVVSARFWEDLLLALVGDQLDDADNICGAVLSVRFNEDIISVWNRNASDHQAVMGLRDSIKRHLKLPHAYVMEYKPHDASLRDNSSYRNTWLRG
Q: How did the binding [3] turn out when B1 was run?
A: Its binding is “binds”.

B2: PAT1 (protein, UniProt Q0WPK4 1-793)
chain: MDAFGIGSSLNQAPVTQDLKKFGDNSTGNTMFDASQYAFFGNDVVEEVELGGLEEEDEILSFTGIAEDFSFDKEEVGDSRLLSDVDDLASTFSKLNREPDVYSNTGPITDRRSSQNSLAAEWTHGEELPNWYGRQILDSDAIKDDKVWSAQPFSSLDRVEQRIPDRTKLYPEPQRQLHQDHNQQQFSSEPILVPKSSFVSYPPPGSISPDQRLGHPNIPYQSGGPQMGSPNFSPFPNLQPQLPSMHHGSPQHTGNRPQFRPALPLNNLPPAQWMNRQNMHPGDSSGIMNNAMLQQPPHQNGLMPPQMQGSQNRLPHPMQPPLGHMPGMQPQLFNSHLSRSSSSGNYDGMLGFGDLREVRPGSGHGNRQNVRFPQQGFDAGVQRRYPFRSKYMSAGEIENILRMQLVATHSNDPYVDDYYHQACLAKKSAGAKLKHHFCPNHLRDLQQRARSNNEPHAFLQVEALGRVPFSSIRRPRPLLEVDPPNSAKFGNAEHKPTDKPLDQEPMLAARVYIEDGLCLLLEVDDIDRFLEFNQLQDGGHQLKQRRQALLQSLAVSLQLGDPLAKNGQSQSLDDFLFLRVISLPKGRKLLIRYLQLIFPGSDLMRIVCMAIFRHLRSLFGVLSSDPDIIKTTNKLATVINLCIQNMELGPVSTCLAAVSCSSEQAPLRPLGSPVGDGASTVLKSILDRASELIRANNFNNAGIALWRASFNEFFNMLMRYCISKYDSIMQSLQLPPHFATEISEEAAKAIVREMPIELLRSSFPHIDEQQKRILMEFLKRSMLGSQKTEPVLS
Q: Which binding [3] does the source give for B2 here?
A: Its binding is “binds”.

B3: … 5 (DCP5), endogenous (protein, UniProt Q9C658 1-611)
chain: MAADNTGSKSSSAADSYVGSLISLTSKSEIRYEGILYNINTDESSIGLQNVRSFGTEGRKKDGPQVPPSDKVYEYILFRGTDIKDLQVKASPPVQPPASTINNDPAIIQSHYPSPMPTSGSLPSTASGSLPDISSHNGQPGQHGMGFQNAMPLYQPGGNLGSWGASPQPPMYWQGFYTPPPNGLPQLHQQSLIRPPHGLPMPNSLQQPLQYPNFNTPPPPTGSSSLQGSSLPEAPSSLFPFSTSSQMLAPSSLPFPGLPPVTLSSSLQSTLQSAPSPSLASEMAPPLLSNKAPITAPPTLPQDTNLLSFSLSTTRATEASTGLPLSNKPSVVTGPISPPQTTPLTSAPVAGVSSSISQDKPKPLLVTPGQLLQSGSSAVSLSPPSTNADKDVEVVQVSSSAGLEQSVPVTSEAQPPILPLPSSARPTQKPNGHSFPNHNGYRGRGRGRGRGAGRSHQVMKFTEDFDFTAMNEKFNKDEVWGHLGKSTTLDGDEDDDSPTVDEAELPKIEAKPVYNKDDFFDSLSSNTIDRESQNSRPRFSEQRKLDTETFGEFSRFRGGRGGRGGYGRNNGYSRGGYGGRGYGGYGGRGGGGGGYGYGGRGQGRGVSNRTT
Q: For B3, which binding [1] is on record?
A: The binding was “binds”.

Q: And the binding [3]?
A: Its binding is “binds”.

Q: What about the binding [4] of the same molecule?
A: The binding was “binds”.

B4: … 5-LIKE (DCP5-L) (protein, UniProt Q9FH77 1-571)
chain: MASESSQSSSPSSSQPPSSVPSPSPGNNVGDTFIGSFISLISKYEIRYEGILYHLNVQDSTLGLKNVRSCGTEGRKKDGPQIPPCDKVYDYILFRGSDIKDLQVNPSPSAQSRQEIQSEQDVNQSPHSRPAMTMSSPISGYDSGYGLGRGSQWINTPALSSKPVPVTQHSSVPLSFQPPSANAGSLTESPVSLIDSTQSNAGSSMPIPSFVQGNKFASSGVPLGMMQKPVSSSSTIPNGPQIIDYFSSPIMGLVDDSSQVVTRSPDVSSNQSYSSNPSPLGQTQLHTPPGLASVSSNLSPPSEAQLSAPNIQKIYPSAPQAIGKVVYDPQSNHPHRSIPHELPAVASNSAPVIPGPLSKSPESFFDMDPSLQSRQQMVYRGQEMFAATNPASANVPSQSFAPRNHAPLLPLPVSAHQSRIPSSSIEYTEEFDFEAMNEKFKKSELWGYLGRNNQRNQNDYGEETAIEPNAEGKPAYNKDDFFDTISCNQLDRVARSGQQHNQFPEHMRQVPEAFGNNFQRPPPLQPGQGAYLAAQTNYRGGYHNNNNNNYYSNSGYGYYSGGRGRGRNTHF
Q: Which binding [3] does the source give for B4 here?
A: The binding was “binds”.

Q: What about the binding [4] of the same molecule?
A: Its binding is “binds”.
